These results are taken from the supplement of paper PMC9744312.

Where a name gives a salt, the structure may show the parent alone. The list shows a part of the results. Single values of this set are uncertain.

This assay concerns Peyronie's disease tunica albuginea primary fibroblasts. Briefly: cell viability (DRAQ5 nuclear stain) relative to TGF-beta1-only control; higher = more viable cells. The settings on record: 10 µM; TGF-beta1 10 ng/mL; 72 h.
Usually cell viability stands for a read-out of living cells in per cent, often relative to untreated cells. Consider `CCN(CC)CCOc1ccc(C(=C(Cl)c2ccccc2)c2ccccc2)cc1` [Clomifene citrate], for which the cell viability is 74.8%. For `C=C[C@@H]1C[C@]1(NC(=O)[C@@H]1C[C@@H]2CN1C(=O)[C@H](C(C)(C)C)NC(=O)O[C@@H]1C[C@H]1CCCCCc1nc3ccc(OC)cc3nc1O2)C(=O)NS(=O)(=O)C1CC1` [Grazoprevir], the cell viability was found to be 99.4%. In the case of `CCCCCOC(=O)Nc1nc(=O)n([C@@H]2O[C@H](C)[C@@H](O)[C@H]2O)cc1F` [Capecitabine] it was 70.8%; in that of `CC(C)=CCC/C(C)=C/CC/C(C)=C/CSc1ccccc1C(=O)O` [Salirasib], 96.2%. `CCCCNc1ccc(C(=O)OCCN(C)C)cc1` [Tetracaine HCl]: the cell viability is 87.3%. With `CCCCC(=O)N(Cc1ccc(-c2ccccc2-c2nn[nH]n2)cc1)C(C(=O)O)C(C)C.CCOC(=O)C(C)CC(Cc1ccc(-c2ccccc2)cc1)NC(=O)CCC(=O)O` (stereo not drawn) [Sacubitril/valsartan (LCZ696)], the cell viability stood at 94.1%. The figure for `CN1CCOC(c2ccccc2)c2ccccc2C1` (stereo not drawn) [Nefopam HCl] is 90.8%; for `C[C@H](CSC(=O)c1ccccc1)C(=O)N1C[C@@H](Sc2ccccc2)C[C@H]1C(=O)O` [Zofenopril calcium] it is 93.2%; for `COc1ncc(-c2ccc3nccc(-c4ccnnc4)c3c2)cc1NS(=O)(=O)c1ccc(F)cc1F` it is 53.8%. The figure for `CN1CCC(=C2c3ccccc3CCc3sccc32)CC1` [Pizotifen Malate] is 81.6%. For `CCc1cc(C(N)=S)ccn1` [Ethionamide], the cell viability was 93.2%.

As for `CC(=O)Nc1c(I)c(NC(C)=O)c(I)c(C(=O)O)c1I` [Diatrizoate sodium], the cell viability was 93.9%. `CCOc1cc2ncc(C#N)c(Nc3ccc(OCc4ccccn4)c(Cl)c3)c2cc1NC(=O)/C=C/CN(C)C` [Neratinib (HKI-272)]: the cell viability was found to be 71.7%.

With `O=C(N/N=C/c1ccc([N+](=O)[O-])o1)c1ccc(O)cc1` [Nifuroxazide], the cell viability worked out at 99.8%. Consider `CC(C)=CCC/C(C)=C/CC/C(C)=C/CCC(=O)OC/C=C(\C)CCC=C(C)C` [Gefarnate], for which the cell viability came to 87.4%.

With `NC(=O)c1ncn([C@@H]2O[C@H](CO)[C@@H](O)[C@H]2O)c1O` [Mizoribine], the cell viability was found to be 83.6%. For `Cc1cn([C@@H]2C[C@@H](O)[C@H](CO)O2)c(=O)[nH]c1=O` [Telbivudine], the cell viability stood at 99.7%. The figure for `CC(C)(O/N=C(\C(=O)N[C@@H]1C(=O)N2C(C(=O)[O-])=C(C[n+]3ccccc3)CS[C@H]12)c1csc(N)n1)C(=O)O` [Ceftazidime Pentahydrate] is 91.6%; for `CC(C)(O/N=C(\C(=O)N[C@@H]1C(=O)N2C(C(=O)[O-])=C(C[n+]3ccccc3)CS[C@H]12)c1csc(N)n1)C(=O)O` [Ceftazidime] it is 80.9%.

`CNCCC=C1c2ccccc2CCc2ccccc21` [Nortriptyline hydrochloride]: the cell viability came out at 75.9%. Take `CS(=O)(=O)Nc1ccc([N+](=O)[O-])cc1Oc1ccccc1` [Nimesulide]: the cell viability worked out at 99.1%. Consider `CCn1cc(C(=O)O)c(=O)c2cc(F)c(N3CCNC(C)C3)c(F)c21` (stereo not drawn) [Lomefloxacin HCl], for which the cell viability was found to be 92.9%.

As to `CCn1cc(C(=O)O)c(=O)c2cc(F)c(N3CCNC(C)C3)c(F)c21` (stereo not drawn) [Lomefloxacin], the cell viability was 88%. In the case of `CC(C)CN(C[C@@H](O)[C@H](Cc1ccccc1)NC(=O)O[C@H]1CCOC1)S(=O)(=O)c1ccc(N)cc1` [Amprenavir] it was 96.8%; in that of `CCC1=C[C@@H]2CN(C1)Cc1c([nH]c3ccccc13)[C@@](C(=O)OC)(c1cc3c(cc1OC)N(C)[C@H]1[C@@](O)(C(=O)OC)[C@H](OC(C)=O)[C@]4(CC)C=CCN5CC[C@]31[C@@H]54)C2` [Vinorelbine Tartrate], 74.8%; in that of `OCc1ccccc1` [Benzyl alcohol], 99.2%.

Take `CNC(=C[N+](=O)[O-])NCCSCc1csc(CN(C)C)n1` [Nizatidine]: the cell viability amounted to 91.8%. For `CC1(C)[C@@H](O[C@H]2O[C@H](C(=O)O)[C@@H](O)[C@H](O)[C@H]2O[C@@H]2O[C@H](C(=O)O)[C@@H](O)[C@H](O)[C@H]2O)CC[C@]2(C)[C@H]3C(=O)C=C4[C@@H]5C[C@@](C)(C(=O)O)CC[C@]5(C)CC[C@@]4(C)[C@]3(C)CC[C@@H]12` [Ammonium Glycyrrhizinate], the cell viability is 93.9%.

As for `C[C@]12C=CC(=O)C=C1CC[C@@H]1[C@@H]2C(=O)C[C@@]2(C)[C@H]1CC[C@]2(O)C(=O)CO` [Prednisone], the cell viability turned out to be 96.3%. The figure for `CCOC(=O)CCC(=O)O[C@H]1[C@H](O[C@@H]2[C@@H](C)[C@H](O[C@H]3C[C@@](C)(OC)[C@@H](O)[C@H](C)O3)[C@@H](C)C(=O)O[C@H](CC)[C@@](C)(O)[C@H](O)[C@@H](C)C(=O)[C@H](C)C[C@@]2(C)O)O[C@H](C)C[C@@H]1N(C)C` [Erythromycin Ethylsuccinate] is 84.8%. On to `C[C@@H]1CN(c2c(F)c(N)c3c(=O)c(C(=O)O)cn(C4CC4)c3c2F)C[C@H](C)N1` [Sparfloxacin], for which the cell viability is 88.9%. The figure for `C[C@@H]1O[C@@H]1P(=O)(O)O` [Fosfomycin Tromethamine] is 87.1%; for `C[C@@H]1O[C@@H]1P(=O)(O)O` [Fosfomycin Disodium] it is 93.2%.

In the case of `NC(=O)c1ncn([C@@H]2O[C@H](CO)[C@@H](O)[C@H]2O)c1N` [AICAR (Acadesine)], the cell viability stood at 91.2%. The figure for `CCC(=O)O[C@H]1[C@H](O[C@@H]2[C@@H](C)[C@H](O[C@H]3C[C@@](C)(OC)[C@@H](O)[C@H](C)O3)[C@@H](C)C(=O)O[C@H](CC)[C@@](C)(O)[C@H](O)[C@@H](C)C(=O)[C@H](C)C[C@@]2(C)O)O[C@H](C)C[C@@H]1N(C)C` [Erythromycin estolate] is 55.5%; for `CC(c1cc2ccccc2s1)N(O)C(N)=O` (stereo not drawn) [Zileuton] it is 70.4%. On to `COc1cc(C)c(/C=C/C(C)=C/C=C/C(C)=C/C(=O)O)c(C)c1C` [Acitretin], for which the cell viability amounted to 74.3%.

In the case of `CC(C)OC(=O)CCC/C=C\C[C@@H]1[C@@H](CC[C@@H](O)CCc2ccccc2)[C@H](O)C[C@@H]1O` [Latanoprost], the cell viability turned out to be 83.3%. `CN(C)CCC=C1c2ccccc2C=Cc2ccccc21` [Cyclobenzaprine HCl]: the cell viability worked out at 91.4%. The figure for `CN(C)CCc1c[nH]c2ccc(C[C@H]3COC(=O)N3)cc12` [Zolmitriptan] is 100%; for `C[N+]1(C)CCC(=C(c2ccccc2)c2ccccc2)CC1` [Diphemanil Methylsulfate] it is 93.4%.

Take `CNNCc1ccc(C(=O)NC(C)C)cc1` [Procarbazine HCl]: the cell viability turned out to be 99.1%. Turning to `O=c1[nH]c(=O)n([C@H]2C[C@H](O)[C@@H](CO)O2)cc1F` [Floxuridine], the cell viability turned out to be 70.8%. The figure for `Oc1ccc(O)cc1` [Hydroquinone] is 89.1%; for `COc1cc2nc(N3CCN(C(=O)C4CCCO4)CC3)nc(N)c2cc1OC` (stereo not drawn) [Terazosin HCl] it is 86.1%; for `COc1cc2nc(N3CCN(C(=O)C4CCCO4)CC3)nc(N)c2cc1OC` (stereo not drawn) [Terazosin HCl Dihydrate] it is 86.2%. As to `NC(=O)[C@@H]1CC[C@@H]2CN1C(=O)N2OS(=O)(=O)O` [Avibactam sodium], the cell viability is 96.9%.

Regarding `Nc1ccn(C[C@@H](CO)OCP(=O)(O)O)c(=O)n1` [Cidofovir], the cell viability was 87.7%. For `FC(F)(F)c1ccc(/C=C/c2nc(COc3ccc(CCCCn4ccnn4)cc3)co2)cc1` [Mubritinib (TAK 165)], the cell viability amounted to 119%.

Regarding `CN(C)CCCOc1nn(Cc2ccccc2)c2ccccc12` [Benzydamine HCl], the cell viability worked out at 95.8%. The figure for `O=C(O)COc1nn(Cc2ccccc2)c2ccccc12` [Bendazac] is 91.3%; for `OC[C@@H](O)[C@@H](O)[C@H](O)[C@@H](O)CO` [Sorbitol] it is 95.8%; for `CC(=O)OCC(=O)[C@@]1(O)CC[C@H]2[C@@H]3CCC4=CC(=O)CC[C@]4(C)[C@H]3C(=O)C[C@@]21C` [Cortisone acetate] it is 88%. In the case of `CCCCC(=O)O[C@]1(C(=O)CO)[C@@H](C)C[C@H]2[C@@H]3CCC4=CC(=O)C=C[C@]4(C)[C@@]3(F)[C@@H](O)C[C@@]21C` [Betamethasone Valerate] it was 80.4%; in that of `O=C(Nc1cc(Cl)cc(Cl)c1O)c1c(O)c(Cl)cc(Cl)c1Cl` [Oxyclozanide], 88.8%; in that of `O=C(O)Cc1ccccc1Nc1c(Cl)cccc1Cl` [Diclofenac Potassium], 92.7%. For `O=C(O)Cc1ccccc1Nc1c(Cl)cccc1Cl` [Diclofenac Sodium], the cell viability worked out at 81.1%. The figure for `O=C(O)Cc1ccccc1Nc1c(Cl)cccc1Cl` [Diclofenac Diethylamine] is 92.7%; for `C[C@@H]1CC(=O)NN=C1c1ccc(NN=C(C#N)C#N)cc1` [Levosimendan] it is 88.3%.

`CNC(=O)c1ccc2cc([C@@]3(O)CCn4cncc43)ccc2c1` [TAK-700 (Orteronel)]: the cell viability was 64%. The figure for `CC(=O)Oc1cc(C(F)(F)F)ccc1C(=O)O` [Triflusal] is 95.3%; for `CS(=O)(=O)c1ccc([C@@H](O)[C@@H](CO)NC(=O)C(Cl)Cl)cc1` [Thiamphenicol] it is 91.6%; for `CO/N=C(\C(=O)N[C@@H]1C(=O)N2C(C(=O)[O-])=C(C[n+]3ccn4ncccc43)CS[C@H]12)c1nsc(N)n1` [Cefozopran hydrochloride] it is 73.4%. For `Cc1cncc(CN2CCC(=C3c4ccc(Cl)cc4CCc4cccnc43)CC2)c1` [Rupatadine Fumarate], the cell viability came out at 98.5%. In the case of `O=c1[nH]cc(F)c(=O)[nH]1` [Fluorouracil (5-Fluoracil, 5-FU)], the cell viability worked out at 68.1%. On to `C[C@]12C=CC(=O)C=C1CC[C@@H]1[C@@H]2[C@@H](O)C[C@@]2(C)[C@H]1CC[C@]2(O)C(=O)CO` [Prednisolone], for which the cell viability is 80.4%. `NS(=O)(=O)c1cc2c(cc1Cl)N=C(CSCc1ccccc1)NS2(=O)=O` [Benzthiazide]: the cell viability amounted to 111%.

Regarding `CC(=O)OC/C=C(C)/C=C/C=C(C)/C=C/C1=C(C)CCCC1(C)C` [Vitamin A Acetate], the cell viability amounted to 91%.
